PubChem BioAssay AID1259254, NCATS – 2017

Aim: 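Gene knock-downs that lead to re-replication, shown by excess G2 DNA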 (primary screen)
System: human HCT116 colorectal cancer cells
Knock-down reagent: single siRNA against human genes
Time to read-out: 3 days
Measured: 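Nuclei stained with Hoechst and imaged; cell-cycle phase assigned by DNA content; G2 share scaled per plate, non-targeting siRNA 0%, GMNN siRNA 100%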
Direction: G2 robust z-score: higher = more G2 cells, more excess DNA replication
Hit rule: 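Active siRNAs have a G2 robust z of 5 or more median absolute deviations over the median, which in these data means about 38% or higher of GMNN control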
This is an unselected part of about 59,000 reagents tested. Of all reagents, about 1,550 (2.6%) are marked active. 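G2 share is only a proxy for re-replication; each gene was hit by three separate siRNAs, and active genes were retested.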 The numbers tell different reagents against one gene apart. Not all columns of the deposit are shown. Not stated in the record: the amount of reagent.

G2 robust z-score, by gene knocked down and reagent
COIL (coilin): #1 -0.198 inactive; #2 1.18 inactive; #3 2.12 inactive
FOLR1 (folate receptor alpha): #1 1.34 inactive; #2 0.132 inactive; #3 7.01 active
NMRK2 (nicotinamide riboside kinase 2): #1 0.182 inactive; #2 1.5 inactive; #3 -1.44 inactive
RHBDD3 (rhomboid domain containing 3): #1 -0.0903 inactive; #2 2.52 inactive; #3 -0.393 inactive
WDTC1 (WD and tetratricopeptide repeats 1): #1 0.384 inactive; #2 0.573 inactive; #3 0.303 inactive
MON2 (MON2 regulator of endosome-to-Golgi trafficking): #1 8.78 active; #2 -0.0995 inactive; #3 0.928 inactive
CASP14 (caspase 14): #1 -0.507 inactive; #2 3.09 inactive; #3 -0.58 inactive
HORMAD2 (HORMA domain containing 2): #1 -1.41 inactive; #2 1.86 inactive; #3 4.62 inactive
GRIK4 (glutamate ionotropic receptor kainate type subunit 4): #1 0.611 inactive; #2 -0.256 inactive; #3 -0.213 inactive
CLEC3A (C-type lectin domain family 3 member A): #1 0.913 inactive; #2 -0.361 inactive; #3 1.84 inactive
MSH5 (mutS homolog 5): #1 -0.209 inactive; #2 0.832 inactive; #3 2.61 inactive
LEO1 (LEO1 component of Paf1/RNA polymerase II complex): #1 -0.522 inactive; #2 3.13 inactive; #3 0.919 inactive
TWF2 (twinfilin actin binding protein 2): #1 -1.09 inactive; #2 0.603 inactive; #3 1.49 inactive
MAT1A (methionine adenosyltransferase 1A): #1 -0.369 inactive; #2 1.32 inactive; #3 4.97 inactive
SPRED2 (sprouty related EVH1 domain containing 2): #1 -1.13 inactive; #2 0.326 inactive; #3 -0.879 inactive
GRK3 (G protein-coupled receptor kinase 3): #1 -0.834 inactive; #2 0.231 inactive; #3 -0.47 inactive
SLC35F3: #1 0.402 inactive; #2 -0.55 inactive; #3 -0.924 inactive
BTNL9 (butyrophilin like 9): #1 -0.681 inactive; #2 1.82 inactive; #3 -0.719 inactive
FBXL22 (F-box and leucine rich repeat protein 22): #1 4.1 inactive; #2 0.0979 inactive; #3 -0.528 inactive
PRICKLE2 (prickle planar cell polarity protein 2): #1 1.43 inactive; #2 -0.11 inactive; #3 1.28 inactive
CASKIN1 (CASK interacting protein 1): #1 1.26 inactive; #2 0.865 inactive; #3 2.69 inactive
TMEM158 (transmembrane protein 158): #1 1.29 inactive; #2 0.296 inactive; #3 -0.223 inactive
KRTAP1-5 (keratin associated protein 1-5): #1 0.68 inactive; #2 -0.858 inactive; #3 0.141 inactive

Taken from above:
Value of RHBDD3 (rhomboid domain containing 3) #2 in “Outcome”: inactive
FBXL22 (F-box and leucine rich repeat protein 22) #1, G2 robust z-score → 4.1
PRICKLE2 (prickle planar cell polarity protein 2) #2, G2 robust z-score: -0.11
MAT1A (methionine adenosyltransferase 1A) #1, Outcome = inactive
FOLR1 (folate receptor alpha) #1, G2 robust z-score: 1.34
Under “G2 robust z-score”, PRICKLE2 (prickle planar cell polarity protein 2) #1 is entered as 1.43
